# Data: US20240376156A1, “MULTIPLE DE NOVO DESIGNED PROTEIN BINDING PROTEINS” (UNIVERSITY OF WASHINGTON, priority 2021, published 2024)
# Amino acid sequences for entries named in this document (tags omitted). A change or cut given only in a name is not applied to a line headed by its entry. Chains listed by the source or under a name are the forms on record and can include a tag or linker. Residues count along the entry.
# InsulinR ectodomain (residues 28-953) with C-terminal TEV/His/AviTag (P06213, form named): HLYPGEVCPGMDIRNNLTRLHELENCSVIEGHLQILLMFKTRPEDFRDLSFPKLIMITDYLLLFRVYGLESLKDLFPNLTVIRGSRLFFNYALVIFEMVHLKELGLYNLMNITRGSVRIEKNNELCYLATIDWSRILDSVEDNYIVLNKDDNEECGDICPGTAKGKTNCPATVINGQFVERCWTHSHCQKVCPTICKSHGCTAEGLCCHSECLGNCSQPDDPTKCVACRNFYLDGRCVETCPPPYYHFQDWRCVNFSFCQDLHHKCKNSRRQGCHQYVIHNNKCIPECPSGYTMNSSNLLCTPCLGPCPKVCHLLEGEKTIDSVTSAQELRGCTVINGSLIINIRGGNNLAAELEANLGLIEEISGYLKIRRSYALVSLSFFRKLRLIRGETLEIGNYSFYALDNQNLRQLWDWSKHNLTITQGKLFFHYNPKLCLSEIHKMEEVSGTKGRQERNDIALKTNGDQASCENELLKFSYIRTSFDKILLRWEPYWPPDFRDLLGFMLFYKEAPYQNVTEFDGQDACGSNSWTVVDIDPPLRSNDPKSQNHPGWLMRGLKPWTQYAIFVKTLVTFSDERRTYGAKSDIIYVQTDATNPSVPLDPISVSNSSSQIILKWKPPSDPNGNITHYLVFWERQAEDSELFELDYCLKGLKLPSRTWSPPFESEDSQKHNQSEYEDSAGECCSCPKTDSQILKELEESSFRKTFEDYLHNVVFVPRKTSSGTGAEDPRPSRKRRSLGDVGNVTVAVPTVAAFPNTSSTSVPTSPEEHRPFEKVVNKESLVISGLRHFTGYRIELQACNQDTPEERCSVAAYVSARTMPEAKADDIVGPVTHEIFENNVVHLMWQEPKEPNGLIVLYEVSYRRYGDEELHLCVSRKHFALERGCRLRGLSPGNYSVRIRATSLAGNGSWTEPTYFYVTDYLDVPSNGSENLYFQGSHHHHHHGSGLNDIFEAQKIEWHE
# UniProt P01137, residues 279-390: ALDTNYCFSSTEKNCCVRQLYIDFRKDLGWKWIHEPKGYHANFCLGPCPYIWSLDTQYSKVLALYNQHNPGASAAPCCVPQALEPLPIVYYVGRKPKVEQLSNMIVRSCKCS
# UniProt P04234, residues 22-105: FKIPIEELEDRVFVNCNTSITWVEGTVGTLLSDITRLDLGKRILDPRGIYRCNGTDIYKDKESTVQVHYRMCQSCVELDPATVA
# No constants are given. Whether binding was seen depends on the method and setting. Some results given as binding are weak or reduced against the parent protein; the word gives no strength.
# B1: InsulinR_mb (designed binder)
# chain: MSHHHHHHHHSENLYFQSGGGDEELMELVYEAVEKNDPELLFEAWMELASLLDETGDPKIEEALGLLQQVDGGNPDAGRRIKELFK
# B2: TGF-β_mb (designed binder)
# chain: MSHHHHHHHHSENLYFQSGGGHCTIEVVGVDPEKVEAIAAAYGAEVCEKDGKFEIHLDDPHSAESAAVAISVLTNRPVRLQC
# B3: CD3δ_mb (designed binder)
# chain: MSHHHHHHHHSENLYFQSGGGNHIACEIHNPEAAKEIAKVANVRRVYFIKQPGNRYFVLLKNADPEGVKKVRSKYNVRCVIRE
# What was measured:
# [1] = molecular target: InsulinR ectodomain (residues 28-953) with C-terminal TEV/His/AviTag (human) (UniProt P06213); assay: BLI, miniprotein immobilized on AR2G biosensors, insulin receptor as analyte
# [2] = molecular target: InsulinR ectodomain (residues 28-953) with C-terminal TEV/His/AviTag (human) (UniProt P06213); assay: yeast display sorting and biolayer interferometry
# [3] = molecular target: T1, TGF-β (Acro Biosystems Cat #TG1-H8217) (human, UniProt P01137 279-390); assay: BLI, biotinylated target on SA biosensors, miniprotein as analyte
# T1 construct: also called TGFb; Transforming growth factor beta
# [4] = molecular target: Biotinylated CD3 protein (Abcam Cat #ab205994); target CD3 delta chain (CD3δ) (human) (UniProt P04234); assay: as above
binder,measurement,setting,value
B1,binding,[1],binds
same,binding,[2],binds
B2,binding,[3],binds
B3,binding,[4],binds
